Hit rate of the full screen: of about 320,000 compounds, about 22,000 (6.9%) were called active. Inconclusive results, whose numbers are uncertain, are shown with a selection of clear calls. The call rests on the fitted dose curve; in most records, active means well fitted inhibition curve with a large enough effect; inconclusive means small, poorly fitted or top-dose-only effect, or another doubt; inactive means no such curve, though single readings can be large or run the other way. Potencies of inconclusive entries are doubtful fits and often do not repeat.
Assay: Primary qHTS for delayed death inhibitors of the malarial parasite plastid, 96 hour incubation
Conditions: P. falciparum luciferase reporter growth; series mostly up to 28.7 µM
Outline: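 Compounds incubated with erythrocytes infected by luciferase-expressing P. falciparum (2% hematocrit, 0.05% parasitemia final) for 96 hours, 37 C in 5% CO2. Growth inhibition scored as decreased luciferase luminescence.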
Potency means the concentration at half of the fitted maximal effect.

Row | SMILES | Potency
1 | COc1ccc(C(=O)Nc2ccc(OCC(F)(F)C(F)F)c(C(F)(F)F)c2)cc1OC | inconclusive: 11.7 µM [inhibitor, partial curve, poor fit]
2 | CC(=O)c1cc(-c2ccccc2)n(CC(=O)NC(C)(C)C)c1C | active: 13.1 µM
3 | CCOc1ccc(N(CC(=O)NC2CCCC2)S(=O)(=O)c2c(C)[nH]c(=O)[nH]c2=O)cc1 | inconclusive: 18.5 µM [inhibitor, single point]
4 | Cc1cc(C)c(S(=O)(=O)c2cccc(Cl)c2)c(=O)[nH]1 | inactive
5 | O=C(CCC1CCCN(C(=O)C2=CCCC2)C1)N1CCN(c2ccccn2)CC1 (configuration not stated) | inconclusive: 8.28 µM [inhibitor, single point]
6 | CC1(c2ccccc2Cl)NC(=O)N(CC(=O)N2CCN(S(=O)(=O)c3ccccc3)CC2)C1=O (configuration not stated) | inactive
7 | CCc1cccc(C)c1NC(=O)CCCSc1nc2ccccc2s1 | inconclusive: 18.5 µM [inhibitor, single point]
8 | COc1ccccc1C(CNC(=O)C1COc2ccccc2O1)N1CCCC1 (configuration not stated) | inconclusive: 18.5 µM [inhibitor, single point]
9 | O=CN1Cc2[nH]c3ccccc3c2N(c2ccc(Cl)cc2)C1=O | active: 9.28 µM
10 | Oc1ccccc1C=NCc1ccccc1 | inconclusive: 0.0027 µM [inhibitor, full curve, poor fit]
11 | COc1ccc(S(=O)(=O)NC(CC(=O)N2CCC3(CC2)OCCO3)c2ccco2)cc1 (configuration not stated) | inconclusive: 4.65 µM [inhibitor, partial curve, poor fit]
12 | CC(=O)Nc1ccc(NC(=O)C(c2ccccc2)c2ccccc2)cc1 | inconclusive: 18.5 µM [inhibitor, single point]
13 | Cc1cccc2sc(N(CCCN(C)C)C(=O)c3ccco3)nc12 | inconclusive: 18.5 µM [inhibitor, single point]
14 | COc1ccc(S(=O)(=O)NC(C)C(=O)NC2CC2)cc1C (configuration not stated) | inconclusive: 11.7 µM [inhibitor, partial curve, poor fit]
15 | CC(=O)Nc1cc2nc(C)n(Cc3ccc([N+](=O)[O-])cc3)c2nc1C | inconclusive: 5.22 µM [inhibitor, partial curve, poor fit]
16 | CCNCc1cc(OCC)c(OCC(=O)NCCc2ccccc2)cc1Cl | inconclusive: 18.5 µM [inhibitor, single point]
17 | COC(=O)[C@@]1(Cc2ccc(F)cc2)[C@H]2c3cc(C(=O)N4CCCC4)n(CCc4ccc(O)c(O)c4)c3C[C@H]2CN1C(=O)c1ccccc1 | active: 5.86 µM
18 | Cc1cc(-c2ccc(Cl)cc2)n2nc(C)cc2n1 | active: 10.4 µM
19 | CN(Cc1ccc(-n2cccn2)cc1)Cc1cn(C)nc1-c1ccccc1F | inconclusive: 18.5 µM [inhibitor, single point]
20 | N=c1c(C(=O)NCCc2ccccc2)cc2c(=O)n3ccccc3nc2n1CC1CCCO1 (configuration not stated) | inconclusive: 10.4 µM [inhibitor, single point]
21 | CCOc1cccc(N)c1 | inconclusive: 16.5 µM [inhibitor, single point]
22 | Cn1c(Cc2cccc3ccccc23)nnc1SCC(=O)N1CCN(c2ccccc2)CC1 | inconclusive: 11.7 µM [inhibitor, single point]
23 | CCS(=O)(=O)C1=NN2C(=N)/C(=C\c3ccc(OCCOc4cccc(OC)c4)c(OC)c3)C(=O)N=C2S1 | inconclusive: 0.0147 µM [inhibitor, full curve, poor fit]

Copied from the results shown, 3 compounds:
Row | SMILES | Potency
11 | COc1ccc(S(=O)(=O)NC(CC(=O)N2CCC3(CC2)OCCO3)c2ccco2)cc1 (configuration not stated) | inconclusive: 4.65 µM [inhibitor, partial curve, poor fit]
12 | CC(=O)Nc1ccc(NC(=O)C(c2ccccc2)c2ccccc2)cc1 | inconclusive: 18.5 µM [inhibitor, single point]
13 | Cc1cccc2sc(N(CCCN(C)C)C(=O)c3ccco3)nc12 | inconclusive: 18.5 µM [inhibitor, single point]

More structures

Row | SMILES | Potency
24 | Cc1cc(C(=O)CN2C(=O)C(=O)N(Cc3ccco3)C2=O)c(C)n1CCc1ccccc1 | inactive
25 | COc1ccnc2c1c(=O)n(Cc1ccccc1Cl)c(=O)n2C | inactive
26 | COC(=O)CSc1nnc(-c2ccoc2C)n1-c1ccc(OC)cc1 | inconclusive: 18.5 µM [inhibitor, single point]
27 | CN1CCC(=NNC(=O)c2ccco2)CC1 | inconclusive: 4.15 µM [inhibitor, single point]
28 | COc1ccc(CNC(=O)CCCn2nc(C)c([N+](=O)[O-])c2C)cc1OC | inactive
29 | O=C(CSc1nnc(Cc2ccccc2)n1C1CCCCC1)N1CCOCC1 | inconclusive: 9.28 µM [inhibitor, single point]
30 | CC(C)Oc1ccc(C(=O)NC(=S)Nc2ccc(Cl)c(C(=O)O)c2)cc1 | inactive
31 | COc1ccc(CN2CCC(Oc3ccc(C(=O)N4CCCC4)cc3)CC2)c(F)c1 | inconclusive: 11.7 µM [inhibitor, partial curve, poor fit]
32 | O=C(NCCc1ccc(Cl)cc1)C1CCN(S(=O)(=O)c2ccc(Br)s2)CC1 | inconclusive: 13.1 µM [inhibitor, single point]
33 | O=C(C1CC1)N1CCc2cc(Br)cc(S(=O)(=O)NC3CCCCC3)c21 | inconclusive: 16.5 µM [inhibitor, partial curve, poor fit]
34 | Cc1cccc(NC(=O)CSCC(=O)Nc2cc(S(=O)(=O)N3CCOCC3)ccc2OC(C)C)c1 | inconclusive: 6.57 µM [inhibitor, partial curve]
35 | O=C(NC1CC1)C1CCCN(C(=O)NC2CCCCC2)C1 (configuration not stated) | inconclusive: 13.1 µM [inhibitor, single point]
36 | CCOc1ccc(C2=Nn3c(nnc3-c3ccco3)SC2)cc1 | inconclusive: 13.1 µM [inhibitor, single point]
37 | Cc1cc(OCC(=O)N(C)C2CCCCC2)cc(C)c1Cl | inactive
38 | COc1ccc(OC)c(N(CC(=O)Nc2ccccc2C(=O)NCc2ccco2)S(C)(=O)=O)c1 | inconclusive: 16.5 µM [inhibitor, partial curve, poor fit]
39 | O=C(O)CCCC(=O)Nc1ccccc1Oc1ccccc1 | inactive
40 | Cc1ccccc1-n1nc(-c2cccnc2)cc1C(=O)NN | inactive
41 | CC(=O)c1ccccc1NC(=O)CSc1nnc2ccccn12 | inactive
42 | O=C(O/N=C1/CCSc2ccccc21)c1ccccc1 | inconclusive: 18.5 µM [inhibitor, single point]
43 | Cc1c(C(=O)N(Cc2nnc(-c3ccccc3Cl)o2)C2CC2)oc2ccccc12 | inactive
44 | Cc1ccc(-c2nn(C)c(=O)c3ccccc23)cc1S(=O)(=O)N1CCOCC1 | inconclusive: 10.4 µM [inhibitor, partial curve, poor fit]
45 | O=c1c(-c2nnc(SCc3ccc(Cl)cc3Cl)o2)cccn1Cc1ccccc1 | inconclusive: 2.62 µM [inhibitor, full curve]
46 | Cc1ccc(C)c(/C(O)=C2/C(=O)C(=O)N(CCN3CCOCC3)C2c2ccco2)c1 (configuration not stated) | inconclusive: 0.0657 µM [inhibitor, full curve, poor fit]

Row | SMILES | Potency
47 | CCCNC(=O)C(CC)NC(=O)c1cccc([N+](=O)[O-])c1 (configuration not stated) | inactive
48 | O=C(CCNS(=O)(=O)c1ccc(Br)cc1)NCc1cccs1 | inactive
49 | Nc1nc(-c2ccc(Cl)cc2)cc(C(F)(F)F)n1 | active: 7.38 µM
50 | O=C(COc1ccccc1)NC1CCN(Cc2ccccc2)CC1 | inactive
51 | Cc1cccc(OCC(=O)Nc2ccccc2N2CCN(C)CC2)c1 | inactive
52 | Cc1cccc(NC(=O)CNC(=O)c2cc(C3CC3)nn2-c2ccccc2)c1C | inconclusive: 14.7 µM [inhibitor, single point]
53 | O=C(CSc1ncnc2c1cnn2-c1ccccc1Cl)N1CCN(C(=O)c2ccco2)CC1 | active: 7.38 µM
54 | Fc1cccc(C2CCCCN2Cc2nc(C3CC3)no2)c1 (configuration not stated) | inconclusive: 10.4 µM [inhibitor, single point]
55 | O=C(Cn1ncn2cccc2c1=O)N1CCCCC1 | inactive
56 | C#CCOCCOCCOCCNc1nc(N2CCN(C(=O)[C@H]([C@@H](C)CC)n3cc([C@@H](N)Cc4ccc(O)cc4)nn3)CC2)nc(N2CCN(C(=O)[C@H](Cc3ccc(O)cc3)n3cc([C@@H](N)C(C)CC)nn3)CC2)n1 (some centres not stated) | inconclusive: 4.65 µM [inhibitor, partial curve, poor fit]
57 | CCN(CC)CCN(C(=O)c1ccc(S(=O)(=O)N(C)C2CCCCC2)cc1)c1nc2c(C)cccc2s1 | inconclusive: 18.5 µM [inhibitor, single point]
58 | CC1CCC(NC(=O)N(CCCl)N=O)CC1 (configuration not stated) | active: 6.75 µM
59 | O=C(C[n+]1ccc(C(=O)N/N=C/c2ccc(OCc3ccccc3)cc2)cc1)c1ccccc1 | inconclusive: 18.5 µM [inhibitor, single point]
60 | COc1ccc(-n2c(SCC(=O)Nc3ccccc3C)nc(O)c(Cc3ccccc3)c2=O)cc1 | inconclusive: 20.8 µM [inhibitor, single point]
61 | CCOc1ccc2c(C)c(Cl)c(=O)oc2c1 | inconclusive: 18.5 µM [inhibitor, single point]
62 | COC(=O)C1=C(C)NC(=O)NC1c1ccc(-c2ccc(Cl)cc2)o1 (configuration not stated) | inconclusive: 16.5 µM [inhibitor, single point]
63 | COc1ccc(C(=O)Nc2nc3c(s2)CCCC3)cc1S(=O)(=O)N1CCCc2ccccc21 | active: 10.4 µM
64 | O=C1C(=O)c2ccccc2-c2ccccc21 | inconclusive: 11.7 µM [inhibitor, partial curve, poor fit]
65 | COc1ccc(-c2nn(-c3ccccc3)cc2C(=O)NC2CC2)cc1 | inconclusive: 11.7 µM [inhibitor, single point]
66 | CC(=O)c1ccc2c(c1)C1C=CCC1C(c1cc3c(cc1Br)OCO3)N2 (configuration not stated) | inconclusive: 18.5 µM [inhibitor, single point]
67 | COc1ccc(N(CC(=O)NCc2cccnc2)S(=O)(=O)c2c(C)nn(C)c2C)cc1 | inconclusive: 9.28 µM [inhibitor, partial curve, poor fit]

Source: PubChem BioAssay AID504834 (National Center for Advancing Translational Sciences (NCATS), 2011)
